Laboratory results published in PubChem BioAssay AID2551 (National Center for Advancing Translational Sciences (NCATS), 2010).
The whole screen tested about 310,000 compounds, of which about 17,000 (5.5%) were called active. The shares of active, inactive and inconclusive entries below differ from those in the screen. Calls come from the whole dose curve; as a rule, active = well fitted inhibition curve with a large enough effect; inconclusive = small, poorly fitted or top-dose-only effect, or effect the other way; inactive = no such curve, though single readings can be large or run the other way. Where the call is inconclusive, the potency comes from a doubtful curve fit.

Protein sequences, listed by entry. Tags and fused reporters are not part of them. Lines headed by an entry give the natural chain unless they say otherwise; changes in a name come on top.
UniProt P51450: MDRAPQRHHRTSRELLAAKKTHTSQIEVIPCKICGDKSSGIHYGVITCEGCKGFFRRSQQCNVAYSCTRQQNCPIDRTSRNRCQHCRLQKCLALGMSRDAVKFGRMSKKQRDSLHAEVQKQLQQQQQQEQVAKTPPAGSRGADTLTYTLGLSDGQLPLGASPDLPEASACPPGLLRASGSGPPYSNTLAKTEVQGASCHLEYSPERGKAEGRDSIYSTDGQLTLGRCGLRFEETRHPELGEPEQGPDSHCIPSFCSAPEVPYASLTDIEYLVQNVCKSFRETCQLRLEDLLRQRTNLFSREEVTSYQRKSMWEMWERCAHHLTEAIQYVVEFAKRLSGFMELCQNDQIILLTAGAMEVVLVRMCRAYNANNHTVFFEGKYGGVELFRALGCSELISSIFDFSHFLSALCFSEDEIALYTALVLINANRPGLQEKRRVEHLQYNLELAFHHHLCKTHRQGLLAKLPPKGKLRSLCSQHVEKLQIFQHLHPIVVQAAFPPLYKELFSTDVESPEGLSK

What follows are molecules tested against Nuclear receptor ROR-gamma (Mus musculus) (UniProt P51450) (assay: qHTS for inhibitors of ROR gamma transcriptional activity). Details: Drosophila S2 Gal4-RORgamma UAS-luciferase reporter, 20 h; activity change, negative = inhibition: at 53.6 µM (top of the series).
Excerpt: NIH Molecular Libraries Probe Production Network [MLPCN] NIH Chemical Genomics Center [NCGC] MLPCN Grant: R03 DA026211-01 Assay Provider: Dan Littman, New York University Assay Overview: The retinoic acid-related orphan receptor (ROR) gamma is a transcription factor that has a central role in the differentiation of Th17 cells, a subset of T helper cells that secrete the inflammatory cytokines IL-17, IL-17F, and IL-22. Th17 cells have been implicated in graft versus host disease, autoimmune disease and asthma. ROR gamma is induced in naive T helper cells in the presence of TGF-beta combined with IL-6, IL-21, or IL-23, and thereafter directs the expression of the Th17 lineage cytokines. To study the mechanism of action of ROR gamma, an insect cell-based assay was screened. This Drosophila Schneider cell line was stably transfected with two vectors: a gene expressing a fusion of the Gal4 DNA binding domain and ROR gamma transactivation domain under the control of the metallothionine promoter and a Photinus luciferase reporter regulated by the Gal4 binding site enhancer, UAS. […] Small molecule inhibitors of ROR gamma activity are detected by a decrease in luciferase reporter activity.
Assay Protocol Summary: For screening, 600 cells in 4 uL/well were dispensed into white solid 1536-well plates (Grenier) using a solenoid-based dispenser. Following transfer of 23 nL compound or DMSO vehicle by a pin tool, the plates were incubated 1 hr at ambient temperature, and 1 uL/well copper sulfate (700 uM final concentration) was added. The plates were centrifuged 15 s at 1000 RPM and incubated 20 hr at ambient temperature. After addition of 1.5 uL Photinus luciferase detection reagent, the plates were incubated 10 min at ambient temperature and then read by an ViewLux (Perkin Elmer) to detect luminescence. Keywords: NIH Roadmap, MLPCN, MLI, MLSMR, qHTS, NCGC, qHTS, nuclear hormone receptor, retinoic acid-related orphan receptor, ROR gamma
% is set by controls: 0 for no effect and ±100 for the full control effect; potency is the fitted concentration of half-maximal effect.
Note: nearly all actives have a fitted effect of over 60% in size.

**Q.** `Cc1cc(C)n(-c2cc(N3CCN(C(=O)c4cccc(F)c4)CC3)ccc2[N+](=O)[O-])n1` was tested. Which Potency did it give?
**A.** inconclusive: 28.2 µM [inhibitor, single point]

**Q.** How did the Potency turn out when `Nc1ccccc1SSc1ccccc1N` was run?
**A.** inconclusive: 35.5 µM [inhibitor, single point]

**Q.** How did the Potency turn out when `CCc1nnc(NC(=O)c2nc(S(=O)(=O)Cc3ccc(C)cc3)ncc2Cl)s1` was run?
**A.** active: 15.8 µM

**Q.** For `COc1ccc(-c2cc(CCCC(=O)NCc3ccccn3)no2)cc1`, which Potency is on record?
**A.** inconclusive: 0.0794 µM [inhibitor, full curve, poor fit]

**Q.** Which Potency does the source give for `CC(/C=N/Nc1ncc(C)c(=O)[nH]1)=C\c1ccccc1` here?
**A.** inconclusive: 11.2 µM [activator, partial curve]

**Q.** Which Potency does the source give for `O=C(Nc1ccc(-c2noc(COc3ccccc3Cl)n2)cc1)c1ccco1` here?
**A.** inconclusive: 3.55 µM [activator, partial curve]

**Q.** With `Cc1ccccc1CC(=O)NCC1CCCCC1` as the molecule, how does the Potency read?
**A.** inconclusive: 17.8 µM [activator, single point]

**Q.** `CN(Cc1ccccc1)C(=S)NC(=O)c1ccc(-c2ccccc2)cc1` was tested. Which Potency did it give?
**A.** active: 0.282 µM

**Q.** How did the Potency turn out when `COc1cc(C2C(C#N)=C(N)N(Nc3ccccc3)C3=C2C(=O)CC(C)(C)C3)ccc1OCc1ccccc1` (centres undefined) was run?
**A.** inconclusive: 14.1 µM [activator, single point]

**Q.** For `COC(=O)COc1ccc(/C=C2\SC(=O)N(CC(=O)Nc3ccccc3F)C2=O)cc1`, which activity change, negative = inhibition is on record?
**A.** inactive: -13.7% [at 1.91 µM]

**Q.** `Cc1cccc(NC(=S)NC(=O)CC2CC(C)(C)OC2=O)c1` (centres undefined) was tested. Which Potency did it give?
**A.** active: 11.2 µM

**Q.** With `Cc1c(CN2CCc3c([nH]c4ccccc34)C2C2CCCCC2)cnn1C` (centres undefined) as the molecule, how does the Potency read?
**A.** inactive

**Q.** Which Potency does the source give for `CCOC(=O)c1coc(CNC(=O)c2c(C)oc3c2CCCC3)c1` here?
**A.** inconclusive: 35.5 µM [activator, single point]

**Q.** With `C=CCNC(=O)c1onc(CSc2cc(C)cc(C)c2)c1C(=O)O` as the molecule, how does the Potency read?
**A.** inconclusive: 22.4 µM [inhibitor, single point]

**Q.** For `COc1ccccc1C/C(N)=N/OC(=O)c1cccc([N+](=O)[O-])c1`, which Potency is on record?
**A.** active: 10 µM

**Q.** For `CCOC(=O)C1=NN(c2ccccc2C)C2=NC(C)=C(C(=O)OC)C(c3cccc(OC)c3)N12` (centres undefined), which Potency is on record?
**A.** inactive

**Q.** Which Potency does the source give for `COc1ccc(CN(C)CC(=O)Nc2c(C)cccc2C)c(OC)c1` here?
**A.** inactive

**Q.** For `CSc1ccccc1OCc1cc(C(=O)NCc2ccc(C)s2)no1`, which Potency is on record?
**A.** inconclusive: 11.2 µM [activator, single point]

**Q.** How did the Potency turn out when `CCNc1nc(NC(C)C)nc(Nn2cnnc2)n1` was run?
**A.** inactive

**Q.** `CC(c1ccccc1)n1c(-c2ccncc2)n[nH]c1=S` (centres undefined) was tested. Which Potency did it give?
**A.** inconclusive: 10 µM [inhibitor, partial curve, poor fit]

**Q.** For `COC(=O)c1cc2cc(NS(=O)(=O)c3ccc(C)cc3)ccc2s1`, which Potency is on record?
**A.** inconclusive: 35.5 µM [activator, single point]

**Q.** `COc1ccc(C(=O)NC(=S)NNC(=O)COc2ccccc2)cc1` was tested. Which Potency did it give?
**A.** active: 7.08 µM

**Q.** Which Potency does the source give for `CCN1C(=O)C(O)(CC(=O)c2ccc3c(c2)OCCO3)c2ccccc21` (centres undefined) here?
**A.** inactive

**Q.** `O=C(Nc1ccccc1)O/N=C/c1ccncc1` was tested. Which Potency did it give?
**A.** inconclusive: 12.6 µM [activator, single point]

**Q.** For `CCC(=O)NNc1nc2c(C)cccc2s1`, which Potency is on record?
**A.** active: 11.2 µM

**Q.** With `CCN1C(=O)CSC1=Nc1ccc(C(=O)O)cc1` as the molecule, how does the Potency read?
**A.** inactive

**Q.** For `O=C(N/N=C/c1ccco1)c1cc(C2CC2)nc2ccccc12`, which Potency is on record?
**A.** inactive

**Q.** Which Potency does the source give for `COCCNc1ncnc2ccc(-c3ccccc3C(F)(F)F)cc12` here?
**A.** inconclusive: 35.5 µM [activator, single point]

**Q.** `CC(NC(=O)CCC(=O)NCc1ccc(F)cc1)c1ccccc1` (centres undefined) was tested. Which Potency did it give?
**A.** inactive

**Q.** How did the Potency turn out when `COc1ccccc1C1CCCN1Cc1nc(-c2cc3c(cc2Cl)OCO3)oc1C` (centres undefined) was run?
**A.** inconclusive: 11.2 µM [inhibitor, single point]

**Q.** With `CCn1c(=O)c2cc(C(=O)NCCOC)sc2c2ccccc21` as the molecule, how does the Potency read?
**A.** inactive

**Q.** With `O=C(Nc1ccc(Cl)cc1)Nc1cc([N+](=O)[O-])ccc1F` as the molecule, how does the Potency read?
**A.** inconclusive: 22.4 µM [activator, partial curve]

**Q.** With `CC1=N/C(=C\c2ccc([N+](=O)[O-])cc2)C(=O)N1c1ccc(Cl)cc1` as the molecule, how does the Potency read?
**A.** inconclusive: 7.08 µM [activator, partial curve, poor fit]

**Q.** Which Potency does the source give for `CCCC(=O)Nc1ccc(-c2nc3ncccc3o2)cc1` here?
**A.** inconclusive: 1.58 µM [activator, partial curve]

**Q.** For `CN(c1ccccc1)S(=O)(=O)c1cc(C(=O)Nc2nc3ccccc3[nH]2)ccc1Cl`, which Potency is on record?
**A.** active: 2.82 µM

**Q.** `O=C(/C=C\c1ccc2c(c1)OCO2)CC1(O)C(=O)Nc2ccccc21` (centres undefined) was tested. Which Potency did it give?
**A.** inactive

**Q.** How did the Potency turn out when `O=C(NC(=S)Nc1nc(-c2ccccc2)cs1)c1cncc(Br)c1` was run?
**A.** active: 1.58 µM

**Q.** Which Potency does the source give for `CC(C)C(=O)NC(c1ccc([N+](=O)[O-])cc1)c1c(O)ccc2ccccc12` (centres undefined) here?
**A.** inconclusive: 35.5 µM [inhibitor, single point]

**Q.** With `Cc1cccc(N)c1SC1CCCCC1O` (centres undefined) as the molecule, how does the Potency read?
**A.** inconclusive: 6.31 µM [activator, partial curve]

**Q.** `COc1cc([N+](=O)[O-])cc(/C=N/NC(=O)Cn2nccc2C)c1O` was tested. Which Potency did it give?
**A.** active: 3.55 µM

**Q.** How did the Potency turn out when `CC(C)NC[C@@H](O)COc1ccc(COCCOC(C)C)cc1` was run?
**A.** inactive

**Q.** Which Potency does the source give for `CC(C)(C)n1nc2c(c1NC(=O)COc1ccc3ccccc3c1)CS(=O)C2` (centres undefined) here?
**A.** inconclusive: 35.5 µM [inhibitor, single point]

**Q.** With `Cc1nnc(SCc2cnc(-c3ccc(C(C)C)cc3)s2)n1C` as the molecule, how does the Potency read?
**A.** active: 10 µM

**Q.** `O=c1nccc(N/N=C/c2ccccc2O)[nH]1` was tested. Which Potency did it give?
**A.** active: 3.55 µM

**Q.** Which Potency does the source give for `CCc1ccc(NC(=O)CS(=O)CC(=O)Nc2ccc(-n3cnnn3)c(C)c2)cc1` (centres undefined) here?
**A.** inconclusive: 25.1 µM [activator, single point]

**Q.** Which Potency does the source give for `O=C(CSCc1ccccc1)NNC(=S)Nc1cccc(Cl)c1Cl` here?
**A.** active: 6.31 µM

**Q.** Which Potency does the source give for `Cc1ccnc2c(N3C(=O)C4C5c6ccccc6C(c6ccccc65)C4C3=O)cccc12` (centres undefined) here?
**A.** inconclusive: 35.5 µM [activator, single point]

**Q.** How did the Potency turn out when `COc1ccc(OCc2ccc(-c3nc4ccccc4c(=O)n3N)o2)cc1` was run?
**A.** inconclusive: 11.2 µM [activator, partial curve]

**Q.** Which Potency does the source give for `COc1ccccc1/C=N/NC(=O)CNC(=O)c1ccc(S(=O)(=O)N(C)C)cc1` here?
**A.** inactive
